In patent US20190120846A1:
These are yes or no findings as the source states them, for the method shown. Some results given as binding are weak or reduced against the parent protein; the word gives no strength.

Legend:
[1] = molecular target: T1, recombinant human glypican-1 produced in murine NS0 cells (human) (UniProt P35052); assay: sandwich ELISA
T1 sequence (looked up): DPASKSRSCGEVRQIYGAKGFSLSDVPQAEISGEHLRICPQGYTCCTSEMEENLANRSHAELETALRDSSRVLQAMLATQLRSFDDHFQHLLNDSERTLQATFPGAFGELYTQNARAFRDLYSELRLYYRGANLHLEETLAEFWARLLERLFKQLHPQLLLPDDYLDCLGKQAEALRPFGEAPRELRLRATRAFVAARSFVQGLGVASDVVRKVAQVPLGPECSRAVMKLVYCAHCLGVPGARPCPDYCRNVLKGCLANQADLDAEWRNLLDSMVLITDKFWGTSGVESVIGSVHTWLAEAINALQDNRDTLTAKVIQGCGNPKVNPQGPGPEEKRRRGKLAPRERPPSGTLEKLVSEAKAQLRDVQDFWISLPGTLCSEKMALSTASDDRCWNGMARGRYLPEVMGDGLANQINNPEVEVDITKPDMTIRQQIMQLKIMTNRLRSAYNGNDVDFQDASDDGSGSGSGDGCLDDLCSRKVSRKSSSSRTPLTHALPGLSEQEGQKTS

[2] = molecular target: T1, recombinant human glypican-1 produced in murine NS0 cells (human); assay: sandwich ELISA, capture 2.5 µg/well, biotinylated AM4 clone 1F5 as detection
[3] = molecular target: T2, human glypican-1 (GPC-1) sequence used for epitope mapping (human) (UniProt P35052); assay: earlier peptide analyses by the inventors
T2 sequence: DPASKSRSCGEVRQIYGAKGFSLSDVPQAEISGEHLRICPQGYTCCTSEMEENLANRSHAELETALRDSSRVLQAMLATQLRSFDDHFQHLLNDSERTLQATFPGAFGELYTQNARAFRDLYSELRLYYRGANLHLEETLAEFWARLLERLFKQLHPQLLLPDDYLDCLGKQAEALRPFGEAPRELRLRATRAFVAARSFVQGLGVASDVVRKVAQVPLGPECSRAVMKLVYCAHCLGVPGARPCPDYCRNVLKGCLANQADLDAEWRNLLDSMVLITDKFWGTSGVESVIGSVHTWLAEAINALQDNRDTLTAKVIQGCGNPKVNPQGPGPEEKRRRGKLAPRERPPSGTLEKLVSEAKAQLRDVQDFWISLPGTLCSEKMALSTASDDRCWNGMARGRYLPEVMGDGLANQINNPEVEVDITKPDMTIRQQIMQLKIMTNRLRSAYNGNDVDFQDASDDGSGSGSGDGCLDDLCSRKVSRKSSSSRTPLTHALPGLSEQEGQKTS

[4] = molecular target: T2, human glypican-1 (GPC-1) sequence used for epitope mapping (human); assay: PEPSCAN ELISA on CLIPS peptide arrays, 10 µg/ml antibody
[5] = molecular target: T1, recombinant human glypican-1 produced in murine NS0 cells (human); assay: sandwich ELISA, AM4 as capture, biotinylated AM4 as detection

Measured: binding

B1: AM4 MIL-38 antibody (monoclonal, hybridoma CBA20140026) (antibody, mouse IgG1, kappa, V domains shown)
VH: QIQLVQSGPELKKPGETVKISCKASGYAFTDYSMNWVKQAPGKGLRWMGWINTETGEPTYTDDFKGRFAFSLETSASTAFLQINNLRNEDTATYFCARHYDYGGFPYWGQGTLVTVSA
VL: DIQMTQSPASLSASVGETVTITCRASGNVHNYLAWYQQKQGKSPQLLVYTAKTLADGVPSRFSGSGSGTQYSLKINSLQPEDFGTYYCQHFWSNPWTFGGGTKLEIKR
binds: all assays above
